Reference: the supplement of paper PMC6445147
Single values of this data set are uncertain.

B1: human tRNA-Pro; a variant is named by its letters at N, in order (parent)
chain: GGCTCGTTGGTCTAGNGGTATGATTCTCGCTTAGGGTGCGAGAGGTCCCGGGTTCNNATCCCGGACGAGCCC

Variants of: B1
Test: tRNA 5' processing efficiency (processed reads / all reads, maximum-likelihood estimate) (fraction); higher = more efficient 5' processing
Conditions: HEK293T; construct: CMV Pol-II promoter ((+)CMV library, decapped)

Variant | tRNA 5' processing efficiency
GAA G2A T19G A20G T53A T59G | 0.5
GAA T8C G18T T19G A58G | 0.33
TAA G9A C55A A58C | 0.25
GAA G15T G17A T19G T53A | 0.17
GAA G15C G17A | 0.14
GAA G17C G18T A20T | 0.2
CAA G18A A20C T54C A58C | 0.33
GAA T8G A14T T53A | 0.25
GAA G17A A20G A58C T59C | 0.25
GAA G17C T54A C55T A58T | 0.33
GAA G15A G45T A58T | 0.25
CAA G18T C55T T59C | 0.25
GAA G9C A14C A20G T53G C55T T59A | 0.25
GAA G9T T19A C55G | 0.33
AAA G18T A58T | 0.2
GAA G15A G17C T19C C55G | 0.25
GAA T8C G9T G15A G17T T53A A58T | 0.2
GAA G9C A14G G17T G18T T54C | 0.25
TAA G15T T19G | 0.25
GAA G51A T54A | 0.14
GAA G17A C55A | 0.25
GAA G17A C55T | 0.4
GAA A20G G38A | 0.25
GAA G9C T54A | 0.5

Variant | tRNA 5' processing efficiency
AAA G15T A20G T59C | 0.4
GAA G15T T59A | 0.4
TAA G9C G17T T59G | 0.17
GAA T8G C55T A58G | 0.4
TAA G18A T19G T53G T59G | 0.2
GAA T8A T19C A58C | 0.2
GAA G17A A20T | 0.7
GAA G18T T53G T54G | 0.25
GAA G18T T53G T54A | 0.2
TAA G18C A20G C55T | 0.33
GAA T8C G9A A14T T19A | 0.5
GAA G15C T54G | 0.3
GAA G9C A20T | 0.33
GAA T8C G17A A58G | 0.5
GAA T8G G9T G17T T53A | 0.33
GAA C55G A58C | 0.4
TAA G9T G15T T59G | 0.2
GAA G9T C55T | 0.27
GAA G9T C55G | 0.2
AAA G17T G18T | 0.2
GAA T8A G18C A58G | 0.25
GAA T8A A14G T19G | 0.2
GAA G17T G18A A20T T53A | 0.17
CAA G18C A58G | 0.25

Variant | tRNA 5' processing efficiency
GAA G15T A58G | 0.17
GAA T8C G17C T53A C55T T59A | 0.5
GAA G17T A20T C55G | 0.33
GAA G9C A14G T59G | 0.17
CAA G17C A20C T54C | 0.33
GAA G15T T53G | 0.5
GAA G18T A20G T53A T59A | 0.14
GAA G15T A58G T59C | 0.2
GAA G18A T19A A58T | 0.14
GAA G9C G18C T19A T53A T54G T59A | 0.2
AAA G9A | 0.25
AAA G9C | 0.33
GAA G17C A20G | 0.1
TAA T8C G15C G17C | 0.33
GAA G9A G15C G17A T54C | 0.2
GAA G15A G17C T54A A58T | 0.25
GAA A20T C55A | 0.5
GAA G9A A14T G17C | 0.25
GAA G9C A14G T53A T54C C55G | 0.2
GAA G9T G15C G18T T53A T54A A58G | 0.33
TAA A20C | 0.7
GAA G9C T54A C55G | 0.25
GAA G17C C55A A58C T59G | 0.2
GAA G9A C55G | 0.3

Variant | tRNA 5' processing efficiency
CAA G15C C55G A58T | 0.33
GAA T8A A14C A58T | 0.29
GAA T8G C55G | 0.4
CAA G9T G17A G18T T53G C55A | 0.33
GAA G9C G15T A58T | 0.07
GAA G17T C55T | 0.14
GAA G15C T54G A58T | 0.25
TAA G9A G15T G17A T54C | 0.25
AAA G17T C55G | 0.2
GAA G9C G17C G18T T19A A20T T54A C55A | 0.5
TAA G15T T19G T54C T59G | 0.14
GAA T8C A20C C55T | 0.33
GAA G15T C55A | 0.18
GAA T8A G17T G18A A58G | 0.33
GAA G15T T54A T59G | 0.2
GAA G15C T19C | 0.5
GAA G9T G15C T53A C55T T59A | 0.25
GAA G9T T19A A20G T53G A58G | 0.09
GAA T8A A20C A58T | 0.33
GAA T8C A14T G18A C55A A58T | 0.17
GAA G9C A14C G17A G18C T19C A58C T59A | 0.25
GAA T8C A14G G17C T53C T54C | 0.25
GAA G9T G15A G18T A20T T54G | 0.33
GAA G9A G15T G18C | 0.25

Variant | tRNA 5' processing efficiency
GAA T8A T54C | 0.25
GAA G18T T53G T59G | 0.5
GAA G9C C55T T59C | 0.25
AAA G9A G18T A20G T54A | 0.5
GAA G17A T53G | 0.11
GAA T8A G15T T53A | 0.5
GAA T8A G15C T53A | 0.33
GAA A20C T54C | 0.33
GAA T8A G9A A14G G18T A20C T53A | 0.25
GAA G9T G18A A20T T54A | 0.25
GAA G9C C55A | 0.2
GAA G15A G17C T54G | 0.17
GAA G9A G18C T19G | 0.1
GAA G15T T53C T59A | 0.2
TAA T8A G9T G17A G18T T19G T53A | 0.25
GAA G15C G51A T54A | 0.33
GAA T8G G9T A14G G15T T19G | 0.17
GAA T8A G17T G18T | 0.25
GAA T8C G15T T53C | 0.25
GAA G9T G15T C55G | 0.2
GAA G9A A20T T54A | 0.25
GAA G15T G18T A20G | 0.5
GAA G15A T19A T54A C55A | 0.25
TAA G15T T54A A58T T59G | 0.06

No new results follow: entries from further up.
Variant | tRNA 5' processing efficiency
GAA G9C T54A C55G | 0.25
GAA G17C C55A A58C T59G | 0.2
GAA G9A C55G | 0.3
CAA G15C C55G A58T | 0.33
GAA T8A A14C A58T | 0.29
GAA T8G C55G | 0.4
CAA G9T G17A G18T T53G C55A | 0.33
GAA G9C G15T A58T | 0.07
GAA G17T C55T | 0.14
GAA G15C T54G A58T | 0.25
TAA G9A G15T G17A T54C | 0.25
AAA G17T C55G | 0.2
GAA G9C G17C G18T T19A A20T T54A C55A | 0.5
TAA G15T T19G T54C T59G | 0.14
GAA T8C A20C C55T | 0.33
GAA G15T C55A | 0.18
GAA T8A G17T G18A A58G | 0.33
GAA G15T T54A T59G | 0.2
GAA G15C T19C | 0.5
GAA G9T G15C T53A C55T T59A | 0.25
GAA G9T T19A A20G T53G A58G | 0.09
GAA T8A A20C A58T | 0.33
GAA T8C A14T G18A C55A A58T | 0.17
GAA G9C A14C G17A G18C T19C A58C T59A | 0.25
GAA T8C A14G G17C T53C T54C | 0.25
GAA G9T G15A G18T A20T T54G | 0.33
GAA G9A G15T G18C | 0.25
GAA T8A T54C | 0.25
GAA G18T T53G T59G | 0.5
GAA G9C C55T T59C | 0.25
AAA G9A G18T A20G T54A | 0.5
GAA G17A T53G | 0.11
GAA T8A G15T T53A | 0.5
GAA T8A G15C T53A | 0.33
GAA A20C T54C | 0.33
GAA T8A G9A A14G G18T A20C T53A | 0.25
GAA G9T G18A A20T T54A | 0.25
GAA G9C C55A | 0.2
GAA G15A G17C T54G | 0.17
GAA G9A G18C T19G | 0.1
GAA G15T T53C T59A | 0.2
TAA T8A G9T G17A G18T T19G T53A | 0.25
GAA G15C G51A T54A | 0.33
GAA T8G G9T A14G G15T T19G | 0.17
GAA T8A G17T G18T | 0.25
GAA T8C G15T T53C | 0.25
GAA G9T G15T C55G | 0.2
GAA G9A A20T T54A | 0.25
GAA G15T G18T A20G | 0.5
GAA G15A T19A T54A C55A | 0.25

(list continues)

Variant | tRNA 5' processing efficiency
CAA G9T T19C A20G | 0.33
GAA G9A T54G T59C | 0.2
GAA T8C G9A T54C C55T A58G | 0.33
TAA G15A A20T T53A | 0.18
GAA G18T T54C | 0.25
GAA G18T T54A | 0.25
CAA G18T T19C C55A A58G | 0.2
GAA A20T A23T T54C | 0.4
GAA T8C C55T A58T T59G | 0.5
GAA G9C G15T T53A A58G | 0.25
GAA G18A T19C A20G A58C | 0.25
GAA G17T G18T T54A A58T | 0.1
GAA G15C T53G C55A | 0.2
CAA G15C T19A | 0.33
GAA G15T A20C T54C C55G | 0.33
GAA G18T T53A C55A A58G | 0.25
GAA G15C T19C T54G C55T T59G | 0.33
GAA G15T T19A A20G | 0.25
AAA T8A A20T | 0.5
GAA T8C G9C T53C T54A T59C | 0.25
GAA A14T T54G | 0.33
GAA G17T T19C C55T | 0.25
GAA C55T A58T T59A | 0.17
GAA G15A T19G T53A T54C | 0.33

Variant | tRNA 5' processing efficiency
GAA C55A A58G T59A | 0.25
AAA G17T | 0.17
GAA G9C A14T T53A | 0.5
TAA A20G T53C C55G A58C | 0.4
GAA A20C T53A A58T | 0.17
GAA T8A G9T C55G | 0.17
TAA G9C C55A A58C | 0.23
GAA G17C C55A A58G | 0.25
AAA G15C C55A | 0.5
GAA G9T G17T C55G A58G | 0.2
TAA G18T A20G | 0.2
GAA T8C G15T T19G T53G T54A T59C | 0.33
GAA G9A G17A T19A A20G | 0.33
GAA A20C T53G C55A | 0.17
GAA G9C G38A T54G A58T | 0.33
GAA G17T T19A A20G T53C A58G T59C | 0.18
GAA G17A T19C T53C | 0.33
GAA G9C G18T T53G C55T A58T T59G | 0.33
CAA G9T G18T | 0.2
TAA G15T A20C T54A C55T | 0.13
GAA T8A C55T T59C | 0.09
TAA T8C G17T T53G | 0.4
GAA G9A G17T G18C A20G T59A | 0.17
